PubChem BioAssay AID1508597, Cure First – 2020
Aim: 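Knock-downs altering ovarian cancer cell survival with or without PARP inhibitor rucaparib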 (primary screen). Cells: human ovarian carcinoma lines grown from tumours: OCI-P5x (papillary serous) and OCI-C5x (clear cell). Knock-down reagent: siRNA pool against human genes, 1.25 pmol siRNA per well. Time to read-out: 72 h or 96 h, depending on the cell culture. Conditions: rucaparib 20 µM (about IC30) or vehicle, present until read-out. Read-out: 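Luminescent ATP-based viability assay read 72 or 96 h after transfection, depending on culture, given as normalised percent viability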. Direction: viability, normalised: higher = more viable cells remaining. Rule for the call: 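a well counts as a hit if its normalised viability is under 80 percent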. Meaning of the calls: active = viability under 80%; inactive = viability 80% or more.
In all, the deposit lists about 2,100 reagents; below is a random part of them. 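Calls flag viability under 80% in either arm, not effects specific to rucaparib; the reference for percent is not stated.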 A number with no mark means an inactive call. The record does not give: the 100% reference.

no.	Gene	rucaparib or vehicle	cell line	technical replicate	viability, normalised (%)
1	PRDM10	Rucaparib	OCI-C5x (clear cell)	1	47 (active)
2	PRDM10	Rucaparib	OCI-C5x (clear cell)	2	45.5 (active)
3	PRDM10	Rucaparib	OCI-C5x (clear cell)	3	40.1 (active)
4	PRDM10	Rucaparib	OCI-P5x (serous)	1	41 (active)
5	PRDM10	Rucaparib	OCI-P5x (serous)	2	49.9 (active)
6	PRDM10	Rucaparib	OCI-P5x (serous)	3	49.6 (active)
7	PRDM10	Vehicle	OCI-C5x (clear cell)	1	51 (active)
8	PRDM10	Vehicle	OCI-C5x (clear cell)	2	50.8 (active)
9	PRDM10	Vehicle	OCI-C5x (clear cell)	3	44.6 (active)
10	PRDM10	Vehicle	OCI-P5x (serous)	1	59.4 (active)
11	PRDM10	Vehicle	OCI-P5x (serous)	2	62.1 (active)
12	PRDM10	Vehicle	OCI-P5x (serous)	3	88.8
13	DNMT3L	Rucaparib	OCI-C5x (clear cell)	1	59.2 (active)
14	DNMT3L	Rucaparib	OCI-C5x (clear cell)	2	42.6 (active)
15	DNMT3L	Rucaparib	OCI-C5x (clear cell)	3	39.1 (active)
16	DNMT3L	Rucaparib	OCI-P5x (serous)	1	71 (active)
17	DNMT3L	Rucaparib	OCI-P5x (serous)	2	58.1 (active)
18	DNMT3L	Rucaparib	OCI-P5x (serous)	3	63.4 (active)
19	DNMT3L	Vehicle	OCI-C5x (clear cell)	1	63.7 (active)
20	DNMT3L	Vehicle	OCI-C5x (clear cell)	2	60.3 (active)
21	DNMT3L	Vehicle	OCI-C5x (clear cell)	3	54.8 (active)
22	DNMT3L	Vehicle	OCI-P5x (serous)	1	57.8 (active)
23	DNMT3L	Vehicle	OCI-P5x (serous)	2	61.2 (active)
24	DNMT3L	Vehicle	OCI-P5x (serous)	3	70.2 (active)
25	STK39	Rucaparib	OCI-C5x (clear cell)	1	59.9 (active)
26	STK39	Rucaparib	OCI-C5x (clear cell)	2	58.8 (active)
27	STK39	Rucaparib	OCI-C5x (clear cell)	3	54.2 (active)
28	STK39	Rucaparib	OCI-P5x (serous)	1	85.9
29	STK39	Rucaparib	OCI-P5x (serous)	2	97.5
30	STK39	Rucaparib	OCI-P5x (serous)	3	103
31	STK39	Vehicle	OCI-C5x (clear cell)	1	48.1 (active)
32	STK39	Vehicle	OCI-C5x (clear cell)	2	51.4 (active)
33	STK39	Vehicle	OCI-C5x (clear cell)	3	33.2 (active)
34	STK39	Vehicle	OCI-P5x (serous)	1	67.6 (active)
35	STK39	Vehicle	OCI-P5x (serous)	2	57.9 (active)
36	STK39	Vehicle	OCI-P5x (serous)	3	71.9 (active)
37	ABCG2	Rucaparib	OCI-C5x (clear cell)	1	74.4 (active)
38	ABCG2	Rucaparib	OCI-C5x (clear cell)	2	63 (active)
39	ABCG2	Rucaparib	OCI-C5x (clear cell)	3	82.5
40	ABCG2	Rucaparib	OCI-P5x (serous)	1	85.4
41	ABCG2	Rucaparib	OCI-P5x (serous)	2	98.5
42	ABCG2	Rucaparib	OCI-P5x (serous)	3	82.5
43	ABCG2	Vehicle	OCI-C5x (clear cell)	1	68.9 (active)
44	ABCG2	Vehicle	OCI-C5x (clear cell)	2	65.7 (active)
45	ABCG2	Vehicle	OCI-C5x (clear cell)	3	74.1 (active)
46	ABCG2	Vehicle	OCI-P5x (serous)	1	42.6 (active)
47	ABCG2	Vehicle	OCI-P5x (serous)	2	85
48	ABCG2	Vehicle	OCI-P5x (serous)	3	64.6 (active)

An excerpt from the list above, as a working copy:
no.	Gene	rucaparib or vehicle	cell line	technical replicate	viability, normalised (%)
3	PRDM10	Rucaparib	OCI-C5x (clear cell)	3	40.1 (active)
4	PRDM10	Rucaparib	OCI-P5x (serous)	1	41 (active)
5	PRDM10	Rucaparib	OCI-P5x (serous)	2	49.9 (active)
6	PRDM10	Rucaparib	OCI-P5x (serous)	3	49.6 (active)
7	PRDM10	Vehicle	OCI-C5x (clear cell)	1	51 (active)
8	PRDM10	Vehicle	OCI-C5x (clear cell)	2	50.8 (active)
9	PRDM10	Vehicle	OCI-C5x (clear cell)	3	44.6 (active)
10	PRDM10	Vehicle	OCI-P5x (serous)	1	59.4 (active)

Additional records follow.
no.	Gene	rucaparib or vehicle	cell line	technical replicate	viability, normalised (%)
49	MOS	Rucaparib	OCI-C5x (clear cell)	1	67.1 (active)
50	MOS	Rucaparib	OCI-C5x (clear cell)	2	62.7 (active)
51	MOS	Rucaparib	OCI-C5x (clear cell)	3	48 (active)
52	MOS	Rucaparib	OCI-P5x (serous)	1	89.3
53	MOS	Rucaparib	OCI-P5x (serous)	2	82
54	MOS	Rucaparib	OCI-P5x (serous)	3	86.4
55	MOS	Vehicle	OCI-C5x (clear cell)	1	57.3 (active)
56	MOS	Vehicle	OCI-C5x (clear cell)	2	76.6 (active)
57	MOS	Vehicle	OCI-C5x (clear cell)	3	65.1 (active)
58	MOS	Vehicle	OCI-P5x (serous)	1	80.6
59	MOS	Vehicle	OCI-P5x (serous)	2	59.6 (active)
60	MOS	Vehicle	OCI-P5x (serous)	3	80.9
61	DDX53	Rucaparib	OCI-C5x (clear cell)	1	47 (active)
62	DDX53	Rucaparib	OCI-C5x (clear cell)	2	38.2 (active)
63	DDX53	Rucaparib	OCI-C5x (clear cell)	3	36.4 (active)
64	DDX53	Rucaparib	OCI-P5x (serous)	1	50.2 (active)
65	DDX53	Rucaparib	OCI-P5x (serous)	2	70.5 (active)
66	DDX53	Rucaparib	OCI-P5x (serous)	3	52.1 (active)
67	DDX53	Vehicle	OCI-C5x (clear cell)	1	58 (active)
68	DDX53	Vehicle	OCI-C5x (clear cell)	2	40.4 (active)
69	DDX53	Vehicle	OCI-C5x (clear cell)	3	64.5 (active)
70	DDX53	Vehicle	OCI-P5x (serous)	1	51.5 (active)
71	DDX53	Vehicle	OCI-P5x (serous)	2	52.8 (active)
72	DDX53	Vehicle	OCI-P5x (serous)	3	64.5 (active)
73	CHD1L	Rucaparib	OCI-C5x (clear cell)	1	59.2 (active)
74	CHD1L	Rucaparib	OCI-C5x (clear cell)	2	62.6 (active)
75	CHD1L	Rucaparib	OCI-C5x (clear cell)	3	48.5 (active)
76	CHD1L	Rucaparib	OCI-P5x (serous)	1	84.7
77	CHD1L	Rucaparib	OCI-P5x (serous)	2	52.8 (active)
78	CHD1L	Rucaparib	OCI-P5x (serous)	3	77.4 (active)
79	CHD1L	Vehicle	OCI-C5x (clear cell)	1	59.8 (active)
80	CHD1L	Vehicle	OCI-C5x (clear cell)	2	72.8 (active)
81	CHD1L	Vehicle	OCI-C5x (clear cell)	3	68.6 (active)
82	CHD1L	Vehicle	OCI-P5x (serous)	1	46.2 (active)
83	CHD1L	Vehicle	OCI-P5x (serous)	2	87.4
84	CHD1L	Vehicle	OCI-P5x (serous)	3	83.6
